Taken from: PubChem BioAssay AID504786 (Drosophila RNAi Screening Center, 2011)
Test: 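Fly genes required for HIF-dependent transcription when hypoxia is mimicked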 (primary screen). Cells: Drosophila S2 cells with a stable HIF luciferase reporter. Reagents: long dsRNA against Drosophila genes, about 0.2 µg dsRNA per well of a 384-well plate. Timing: three days of knock-down, then 20 h of DFO before reading. Treatment: desferrioxamine (DFO) at 100 µM, an iron chelator that mimics hypoxia, for 20 h. Detection: 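HIF reporter luminescence in cells given 100 µM DFO for 20 h, using the mouse ldh-a hypoxia-response element, scored as per-plate z-scores; higher means greater loss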. Reading the numbers: z-score: higher = stronger loss of HIF reporter signal.
The deposit covers about 21,000 reagents; this is an unselected part of those that have a named target and a result. 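Primary screen; positive scores mean lost reporter signal, so the sign may be inverted from the usual convention.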 The numbers tell different reagents against one gene apart. A plus sign joins genes that one reagent is predicted to hit. No sequences are given here.

target | dsRNA no. | z-score, replicate 1 | z-score, replicate 2 | z-score, replicate 3 | z-score, replicate 4
CG31523 | 1 | -0.6 | -0.2 | – | –
CG31523 | 2 | 0 | 0 | – | –
CG5359 | 1 | -0.4 | -0.3 | – | –
DNAlig3 (DNA ligase 3) | 1 | -0.3 | -0.5 | – | –
gNacalpha | 1 | -0.2 | -0.1 | – | –
CG33095 | 1 | -0.1 | -0.6 | – | –
Vps16A (Vacuolar protein sorting 16A) | 1 | 0.1 | 0.7 | – | –
Cep164 (centrosomal protein 164) | 1 | -0.3 | -0.5 | – | –
hui (hase und igel) | 1 | -0.1 | 0.5 | – | –
Rab19 | 1 | -0.3 | -0.1 | – | –
CG34393 | 1 | -0.3 | 0 | – | –
CG34393 | 2 | -0.3 | -0.2 | – | –
CG32846 | 1 | -0.2 | -0.2 | – | –
lncRNA:sphinx + ATPsynF | 1 | 2 | 1.4 | – | –
CG7882 | 1 | -0.1 | -0.2 | – | –
veil | 1 | -0.2 | -0.4 | – | –
CG33181 | 1 | -0.3 | -0.1 | – | –
CG6472 | 1 | -0.2 | -0.6 | – | –
botv | 1 | -0.3 | 0 | – | –
CG5934 | 1 | -0.3 | -0.8 | – | –
Dcps (Decapping enzyme, scavenger) | 1 | -0.3 | -0.4 | – | –
CG6231 | 1 | -0.7 | -0.6 | – | –
CG14015 | 1 | 0.2 | 0 | – | –
CG42818 + Ca-Ma2d | 1 | -0.4 | 0.4 | – | –
Mfap1 (Microfibril-associated protein 1) | 1 | -0.2 | -0.4 | – | –
GLS (Glutaminase) | 1 | -0.2 | 0.5 | – | –
CG2519 | 1 | -0.4 | -0.3 | – | –
Mst98Ca (Male-specific RNA 98Ca) | 1 | -0.4 | -0.2 | – | –
CG34408 | 1 | -0.1 | -0.6 | – | –
CG32971 | 1 | 0.1 | 1.1 | – | –
Oamb (Octopamine receptor in mushroom bodies) | 1 | 0.8 | -0.1 | – | –
Oamb (Octopamine receptor in mushroom bodies) | 2 | 0.5 | -0.5 | – | –
Oamb (Octopamine receptor in mushroom bodies) | 3 | 0 | -0.2 | – | –
CG15546 | 1 | -0.5 | -0.4 | – | –
fest (wurstfest) | 1 | 1.4 | 0.9 | – | –
TfIIEalpha (Transcription factor IIEalpha) | 1 | 0 | -0.3 | – | –
CG13218 | 1 | -0.1 | 0.1 | – | –
ppk9 (pickpocket 9) | 1 | -0.2 | -0.3 | – | –
ppk9 (pickpocket 9) | 2 | -0.3 | -0.2 | – | –
CG5418 | 1 | 0.2 | -0.1 | – | –
CG8952 | 1 | -0.3 | -0.3 | – | –
CG4751 | 1 | -0.2 | -0.4 | – | –
CG10307 | 1 | -0.2 | -0.1 | – | –
trc (tricornered) | 1 | -0.1 | 0.4 | – | –
Slc45-1 | 1 | -0.2 | -0.6 | – | –
TwdlR (TweedleR) | 1 | -0.3 | 0.3 | – | –
CG7631 | 1 | -0.3 | -0.2 | – | –
unc-5 | 1 | -0.2 | -0.4 | -0.1 | -0.2
unc-5 | 2 | -0.2 | -0.4 | – | –
unc-5 | 3 | -0.2 | -0.2 | – | –
sktl (skittles) | 1 | -0.4 | -0.7 | – | –
CG32259 | 1 | -0.1 | 0.5 | – | –
ProtB (Protamine B) | 1 | -0.3 | -0.3 | – | –
CG34225 | 1 | -0.2 | -0.2 | – | –
sra (sarah) | 1 | -0.2 | 0 | – | –
CG5989 | 1 | 0.1 | -0.2 | – | –

Entries listed so far whose gene name begins with D or d (2):
target | dsRNA no. | z-score, replicate 1 | z-score, replicate 2 | z-score, replicate 3 | z-score, replicate 4
DNAlig3 (DNA ligase 3) | 1 | -0.3 | -0.5 | – | –
Dcps (Decapping enzyme, scavenger) | 1 | -0.3 | -0.4 | – | –
